Four molecules from publication PMC2391170 can be followed below.

Assay in all cases: two-hybrid; AD (pGAD-C(1)) and BD (pGBD-C(1)) fusions in yeast PJ69-4; dual transformants tested on media lacking leucine, tryptophan and adenine; positive if all tested colonies (4 to 10) grew; both combinations of clones tested whenever possible
Assay [1] has as its target T1, AtFIPS3 (Arabidopsis) (UniProt F4JC20).
T1 sequence: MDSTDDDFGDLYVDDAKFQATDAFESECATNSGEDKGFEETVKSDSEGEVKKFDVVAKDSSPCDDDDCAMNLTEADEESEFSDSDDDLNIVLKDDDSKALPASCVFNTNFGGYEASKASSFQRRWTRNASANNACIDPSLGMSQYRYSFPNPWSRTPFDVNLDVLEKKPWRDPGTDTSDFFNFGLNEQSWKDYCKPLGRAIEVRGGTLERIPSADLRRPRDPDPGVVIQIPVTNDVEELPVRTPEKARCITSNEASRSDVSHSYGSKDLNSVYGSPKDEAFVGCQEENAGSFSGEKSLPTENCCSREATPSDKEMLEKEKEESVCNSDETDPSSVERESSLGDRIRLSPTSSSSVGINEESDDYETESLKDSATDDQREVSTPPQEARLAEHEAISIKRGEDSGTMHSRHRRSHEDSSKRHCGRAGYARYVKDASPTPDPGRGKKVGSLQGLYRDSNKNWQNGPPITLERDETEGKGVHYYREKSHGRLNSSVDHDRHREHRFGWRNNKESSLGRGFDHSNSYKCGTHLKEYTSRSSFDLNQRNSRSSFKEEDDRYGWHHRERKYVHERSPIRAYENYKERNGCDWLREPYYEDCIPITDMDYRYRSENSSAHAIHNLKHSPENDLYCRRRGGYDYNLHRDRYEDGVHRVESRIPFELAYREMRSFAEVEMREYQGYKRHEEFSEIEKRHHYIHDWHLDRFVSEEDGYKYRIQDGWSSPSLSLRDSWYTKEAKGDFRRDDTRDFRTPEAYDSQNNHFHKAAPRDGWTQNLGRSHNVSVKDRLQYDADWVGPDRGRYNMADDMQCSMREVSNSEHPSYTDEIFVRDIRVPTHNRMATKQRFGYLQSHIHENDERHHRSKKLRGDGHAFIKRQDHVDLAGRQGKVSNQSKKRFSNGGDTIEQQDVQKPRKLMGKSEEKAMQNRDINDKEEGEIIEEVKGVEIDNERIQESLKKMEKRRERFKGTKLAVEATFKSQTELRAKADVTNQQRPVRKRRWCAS

Assay [2] deals with T2, AtFIPS5 (Arabidopsis) (UniProt F4KDH9).
T2 sequence: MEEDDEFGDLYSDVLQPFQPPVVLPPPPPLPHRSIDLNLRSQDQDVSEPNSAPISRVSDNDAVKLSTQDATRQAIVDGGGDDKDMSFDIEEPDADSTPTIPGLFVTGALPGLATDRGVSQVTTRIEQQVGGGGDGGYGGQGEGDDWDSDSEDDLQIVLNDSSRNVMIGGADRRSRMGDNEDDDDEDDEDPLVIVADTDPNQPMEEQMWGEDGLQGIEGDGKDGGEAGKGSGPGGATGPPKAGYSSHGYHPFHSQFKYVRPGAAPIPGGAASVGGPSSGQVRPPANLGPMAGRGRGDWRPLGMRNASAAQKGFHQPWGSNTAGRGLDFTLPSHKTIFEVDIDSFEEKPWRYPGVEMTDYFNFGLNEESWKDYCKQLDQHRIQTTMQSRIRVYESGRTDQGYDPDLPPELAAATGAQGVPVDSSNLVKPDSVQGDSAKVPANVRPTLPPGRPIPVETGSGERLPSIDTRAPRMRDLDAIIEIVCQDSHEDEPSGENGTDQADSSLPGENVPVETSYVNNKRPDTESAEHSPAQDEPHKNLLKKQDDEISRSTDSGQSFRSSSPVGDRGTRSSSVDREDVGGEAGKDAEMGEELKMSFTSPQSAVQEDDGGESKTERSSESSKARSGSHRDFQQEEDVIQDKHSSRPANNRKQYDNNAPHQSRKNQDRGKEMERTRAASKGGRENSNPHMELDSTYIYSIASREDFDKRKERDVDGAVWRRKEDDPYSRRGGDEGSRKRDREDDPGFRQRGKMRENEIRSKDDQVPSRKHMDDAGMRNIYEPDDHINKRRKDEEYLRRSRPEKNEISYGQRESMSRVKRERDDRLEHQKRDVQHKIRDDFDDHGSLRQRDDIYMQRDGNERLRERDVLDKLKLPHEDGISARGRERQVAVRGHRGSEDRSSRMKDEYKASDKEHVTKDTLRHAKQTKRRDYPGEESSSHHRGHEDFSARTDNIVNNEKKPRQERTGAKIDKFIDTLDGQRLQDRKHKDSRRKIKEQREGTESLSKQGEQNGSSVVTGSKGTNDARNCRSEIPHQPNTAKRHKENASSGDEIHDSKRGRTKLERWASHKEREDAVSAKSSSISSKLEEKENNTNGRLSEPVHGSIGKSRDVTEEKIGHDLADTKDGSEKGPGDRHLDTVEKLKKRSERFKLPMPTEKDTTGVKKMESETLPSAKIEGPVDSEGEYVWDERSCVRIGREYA

Assay [3] has as its target T3, AtCSTF64 (Arabidopsis) (UniProt Q9M9G6).
T3 sequence: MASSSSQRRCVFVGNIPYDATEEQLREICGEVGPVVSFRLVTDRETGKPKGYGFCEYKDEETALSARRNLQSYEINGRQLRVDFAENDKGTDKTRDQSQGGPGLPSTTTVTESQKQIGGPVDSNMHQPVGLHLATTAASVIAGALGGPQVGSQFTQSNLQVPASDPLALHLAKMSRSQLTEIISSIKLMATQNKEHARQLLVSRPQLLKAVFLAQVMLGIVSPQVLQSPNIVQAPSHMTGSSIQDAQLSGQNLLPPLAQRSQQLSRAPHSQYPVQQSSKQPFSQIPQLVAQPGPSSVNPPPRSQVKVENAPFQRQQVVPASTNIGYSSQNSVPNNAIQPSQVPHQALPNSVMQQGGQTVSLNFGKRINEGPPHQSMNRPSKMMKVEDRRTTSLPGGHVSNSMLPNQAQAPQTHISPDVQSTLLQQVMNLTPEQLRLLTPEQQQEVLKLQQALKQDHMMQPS

The target in assay [4] is T4, AtCSTF77 (Arabidopsis) (UniProt Q8GUP1).
T4 sequence: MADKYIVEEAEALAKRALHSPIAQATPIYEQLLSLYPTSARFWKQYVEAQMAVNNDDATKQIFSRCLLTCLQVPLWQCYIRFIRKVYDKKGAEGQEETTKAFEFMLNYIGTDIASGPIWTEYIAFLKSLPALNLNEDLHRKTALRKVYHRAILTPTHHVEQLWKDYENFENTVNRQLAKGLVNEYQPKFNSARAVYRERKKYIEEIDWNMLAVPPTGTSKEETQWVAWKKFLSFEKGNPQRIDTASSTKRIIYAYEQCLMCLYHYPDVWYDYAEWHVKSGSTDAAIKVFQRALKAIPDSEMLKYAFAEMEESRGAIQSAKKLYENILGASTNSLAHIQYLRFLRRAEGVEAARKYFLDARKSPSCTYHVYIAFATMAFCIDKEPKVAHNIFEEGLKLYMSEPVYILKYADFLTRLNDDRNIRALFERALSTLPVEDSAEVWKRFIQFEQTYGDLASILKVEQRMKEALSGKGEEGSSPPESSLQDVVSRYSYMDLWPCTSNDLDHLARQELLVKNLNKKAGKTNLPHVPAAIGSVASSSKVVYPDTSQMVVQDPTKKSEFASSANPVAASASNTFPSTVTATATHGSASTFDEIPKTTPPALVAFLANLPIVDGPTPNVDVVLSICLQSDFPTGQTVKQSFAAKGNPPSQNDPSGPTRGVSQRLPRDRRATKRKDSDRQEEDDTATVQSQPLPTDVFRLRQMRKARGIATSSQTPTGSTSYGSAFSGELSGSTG

Results are given in words; binding and its absence hold for the method and conditions named. Some entries that bind do so weakly or less than the wild type.

B1: AtCLPS5 (protein, UniProt Q9FLE2 1-424)
chain: MFGPQIRRVKLEKQSELRIELQPTSPLRLRLLDGKAEIFGYELPHEVWITFPPLMTFAVFTWYGATIEIDGITGNEYISCETPMVNYLGLHNSLQVQRHRVTSSTRDSASSQEGPRVIIVGDIDSGKSTLAKMLLNWAVKDGWKPTFVDLNVGQSSITIPGTIAAAPIKMLVDPVEGFPLDKALIHYFGLTNPSVNLRLYRTLVEELARELKEEFSANAESRASGMVIDTMGFIVREGYALLLHAIRTFNASLVIVVGQEEKLVYDLKKNLKFKKNLQVLNLEKSEGVFSRSSDFRKTLRNSNIQNYFYGVTNDLTVYTKTVKFSDVQVYRIGDFRVSGSTSAHQRGNDPLKITLVTIDEHLVNKVLAISYAIKPDQIISSIVAGFVCIKNVDISEERITYVSPSAAELPSKILILGTLTWHVT
Consider B1, for which the binding result in assay [1] and in assay [2] was “binds” throughout.

B2: AtCSTF77 (protein, UniProt Q8GUP1 1-734)
chain: T4 sequence
For the molecule B2, the binding result in assay [3] and in assay [2] was “binds” each time.

B3: AtPCFS5 (protein, UniProt Q9FIX8 1-410)
chain: MASNGSFSAQRNANAGTTMKRRNDNRGYGGGIGCYQEERNRYAPPQKRFRSQLQQQFRSGHNPLYHYGSNTNNNVSRVSSQSYNNYGVDVIASNSSFALPNNDSNTNNYQKPFVVYGNPNPQIVPLPLPYRKLDPLDSLPQWVPNSTPNYPVRSSNFVPNTPDFTNVQNPMNHSNMVSVVSQSMHQPIVLSKELTDLLSLLNNEKEKKTSEASNNDSLPVGLSFDNPSSLNVRHESVIKSLYSDMPRQCTSCGVRFKCQEEHSKHMDWHVRKNRSVKTTTRLGQQPKKSRGWLASASLWLCAPTGGGTVEVASFGGGEMQKKNEKDQVQKQHMVPADEDQKNCALCVEPFEEFFSHEADDWMYKDAVYLTKNGRIVHVKCMPEPRPAKDLREPSRVMSVTVPSVAKAILC
On to B3, for which the binding result in assay [4] is reported as “binds”.

B4: AtCSTF50 (protein, UniProt Q8L4J2 1-429)
chain: MGNSGDLEQALQDGNIFRQLNALIVAHLRHHNLSQVASAVASATMTPLNIEVPPNRLLELVAKGLAAENNGTLRGVSSSVLLPSSYGSITTPRTASIDFSVNHAKGSSKTIPKHESKTLSEHKSVVRCARFSPDGMFFATGGADTSIKLFEVPKVKQMISGDTQARPLIRTFYDHAEPINDLDFHPRSTILISSAKDNCIKFFDFSKTTAKRAFKVFQDTHNVRSISFHPSGEFLLAGTDHPIPHLYDVNTYQCFLPSNFPDSGVSGAINQVRYSSTGSIYITASKDGAIRLFDGVSAKCVRSIGNAHGKSEVTSAVFTKDQRFVLSSGKDSTVKLWEIGSGRMVKEYLGAKRVKLRSQAIFNDTEEFVISIDEASNEVVTWDARTADKVAKWPSNHNGAPRWIEHSPVESVFVTCGIDRSIRFWKESV
On to B4, for which the binding entry is “binds” in assay [3] and “no binding” in assay [4].
